The text below walks through data of publication PMC7263589, “Integration of phage and yeast display platforms: A reliable and cost effective approach for binning of peptides as displayed on-phage” (PLoS ONE, 2020).

Sequences of proteins named here, by UniProt entry; tags and fusion partners are left off. A change or cut given only in a name is not applied to a line headed by its entry.
UniProt P29459: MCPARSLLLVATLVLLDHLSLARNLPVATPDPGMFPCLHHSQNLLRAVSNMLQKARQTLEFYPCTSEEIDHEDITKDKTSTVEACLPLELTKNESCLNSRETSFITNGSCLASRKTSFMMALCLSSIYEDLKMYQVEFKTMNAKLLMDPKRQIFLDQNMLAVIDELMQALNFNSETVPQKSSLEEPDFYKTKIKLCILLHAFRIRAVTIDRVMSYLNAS

Assay [1] has as its target wild-type IL-23 displayed on yeast (human) (UniProt Q9NPF7+P29460). Description: flow cytometry on cells; peptide-phage added to yeast displaying IL-23 or its p19 alanine variants, 1 h RT, casein in PBS; phage detected with anti-M13-AF647 on V5- and p40-positive cells.
Assay [2] addresses T1, IL-23-AVI (human, UniProt Q9NPF7 20-189; P29460 23-328).
T1 construct: IL-23 p19 subunit, human; IL-12/IL-23 p40 subunit, human; Captured on streptavidin chips and beads, so biotinylation of the Avi tag is implied; also called Avi-tagged IL-23; recombinant IL-23
T1 sequence (looked up) 1: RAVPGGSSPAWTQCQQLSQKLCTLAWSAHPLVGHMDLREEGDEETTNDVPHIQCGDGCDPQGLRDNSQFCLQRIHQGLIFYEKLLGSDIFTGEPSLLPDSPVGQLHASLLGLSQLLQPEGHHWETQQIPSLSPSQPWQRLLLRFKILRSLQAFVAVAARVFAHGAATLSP
T1 sequence (looked up) 2: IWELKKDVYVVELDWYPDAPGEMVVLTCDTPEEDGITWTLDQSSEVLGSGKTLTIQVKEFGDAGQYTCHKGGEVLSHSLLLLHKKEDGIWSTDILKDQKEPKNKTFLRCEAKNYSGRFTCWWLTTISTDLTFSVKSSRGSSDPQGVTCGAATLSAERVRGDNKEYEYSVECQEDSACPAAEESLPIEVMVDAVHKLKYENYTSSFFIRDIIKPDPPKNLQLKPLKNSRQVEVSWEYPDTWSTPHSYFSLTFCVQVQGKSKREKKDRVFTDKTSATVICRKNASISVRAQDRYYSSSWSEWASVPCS
In words: ELISA; titer dependent phage ELISA; phage screened against IL-23, IL-12 and background neutravidin-coated plates; only the target purified. For orientation: ELISA stands for enzyme-linked immunosorbent assay.

Assay [3] has as its target Avi-tagged IL-12 (UniProt P29459). Described as above.
Assay [4] has as its target IL-23 with p19 W137A displayed on yeast (human) (UniProt Q9NPF7+P29460). Description: flow cytometry on cells; peptide-phage added to yeast displaying IL-23 or its p19 alanine variants, 1 h RT, casein in PBS; phage detected with anti-M13-AF647 on V5- and p40-positive cells. For orientation: A flow cytometer gives signals particle by particle.
In assay [5] the target is IL-23 with p19 W26A displayed on yeast (human) (UniProt Q9NPF7+P29460). Described as above.
Assay [6] deals with IL-23 with p19 L24A displayed on yeast (human) (UniProt Q9NPF7+P29460). The description is as above.
Assay [7] concerns the target T2, hu IL-23 (human) (UniProt Q9NPF7+P29460). Description: HDX-MS; hu IL-23 with peptide at 1:5 molar ratio in 1xPBS pH 7.4, labelling at 15°C; Waters platform, on-line pepsin; both purified.
The target of assay [8] is T2, hu IL-23 (human). Description: crystal structure; co-crystal of IL-23 with peptide 23–652; methods not shown (S1 File); both purified.

These are yes or no findings as the source states them, for the method shown. Some entries that bind do so weakly or less than the wild type.

B1: peptide 23–447 displayed on-phage (peptide)
peptide: LECLYYLRWKVCDN
Turning to B1, in assay [1], the binding result was “binds”.

B2: peptide 23–644 (free, chemically synthesized) (peptide)
peptide: HVPDPCWFGLLCDVLNS
notes: selected from a peptide phage library against IL-23; Two cysteines; also called FGL-containing peptide; source: synthetic peptide (CPC Scientific)
Regarding B2, the binding result in assay [2] is reported as “binds”; in assay [3] it was “no binding”; in assay [4], “binds”; in assay [1], “binds”; in assay [5], “no binding”; in assay [6], “binds”.

B3: peptide 23–441 (free, chemically synthesized) (peptide)
peptide: QKITQCVYIIWTYPCLLNDV
notes: selected from a peptide phage library against IL-23; Two cysteines; source: synthetic peptide (CPC Scientific)
Regarding B3, the binding entry in assay [1] is “binds”.

B4: peptide 23–652 (free, chemically synthesized) (peptide)
peptide: DTLTKSFCYFGTWCQMYGST
notes: selected from a peptide phage library against IL-23; Two cysteines; also called FGLT-containing peptide; FGL-containing peptide; source: synthetic peptide (CPC Scientific)
For B4, the binding entry in assay [7] and in assay [8] was “binds” each time.

B5: peptide 23–652 displayed on-phage (peptide)
peptide: DTLTKSFCYFGTWCQMYGST
Turning to B5, the binding result is “binds” in assay [2]; “no binding” in assay [3]; “binds” in assay [4]; “binds” in assay [1]; “no binding” in assay [5]; “binds” in assay [6].

B6: peptide 23–437 (free, chemically synthesized) (peptide)
peptide: FTKEIDSWWLSLMSS
notes: selected from a peptide phage library against IL-23; No cysteines, 15 residues; source: synthetic peptide (CPC Scientific)
B6: the binding result in assay [1] was “binds”.

B7: peptide 23–446 (free, chemically synthesized) (peptide)
peptide: GLRERCVRNYGHEFCQNWYW
notes: as for B3
With B7, the binding result in assay [1] is reported as “binds”.
